Results are given in words; binding and its absence hold for the method and conditions named. Binding seen in cells or lysates may run through a third protein. These calls come from enrichment with a bait or labelling near it, and not all partners need be listed. Where a sequence is shown, tags or fusion partners need not be part of it.
T1: Flag-RAB3B (human) (UniProt P20337)
T1 sequence: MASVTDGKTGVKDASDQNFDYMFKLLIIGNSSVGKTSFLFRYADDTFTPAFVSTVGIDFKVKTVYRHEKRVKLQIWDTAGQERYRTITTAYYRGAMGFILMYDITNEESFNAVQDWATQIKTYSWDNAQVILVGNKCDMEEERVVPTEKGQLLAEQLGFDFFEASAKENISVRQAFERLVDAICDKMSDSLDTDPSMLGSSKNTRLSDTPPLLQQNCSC

Protein sequences, listed by entry. Tags and fused reporters are not part of them.
UniProt P20340: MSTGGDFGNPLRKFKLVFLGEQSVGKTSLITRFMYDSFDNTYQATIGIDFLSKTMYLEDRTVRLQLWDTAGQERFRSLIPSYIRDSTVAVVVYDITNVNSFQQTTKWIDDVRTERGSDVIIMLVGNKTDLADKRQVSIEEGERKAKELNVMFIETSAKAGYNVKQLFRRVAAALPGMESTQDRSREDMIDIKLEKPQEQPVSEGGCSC
UniProt Q9NRW1: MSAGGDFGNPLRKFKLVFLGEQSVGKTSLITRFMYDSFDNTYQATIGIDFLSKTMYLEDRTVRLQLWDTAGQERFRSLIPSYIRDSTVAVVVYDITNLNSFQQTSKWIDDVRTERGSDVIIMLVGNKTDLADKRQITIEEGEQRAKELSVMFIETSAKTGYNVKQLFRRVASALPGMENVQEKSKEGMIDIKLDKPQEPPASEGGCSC
UniProt P51149: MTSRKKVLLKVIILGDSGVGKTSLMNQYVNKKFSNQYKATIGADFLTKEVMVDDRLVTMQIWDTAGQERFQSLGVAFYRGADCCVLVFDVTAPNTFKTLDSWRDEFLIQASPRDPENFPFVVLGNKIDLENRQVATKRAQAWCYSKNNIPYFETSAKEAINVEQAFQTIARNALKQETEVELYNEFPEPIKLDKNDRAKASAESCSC

B1: PPM1B (enzyme, UniProt O75688 1-479)
chain: MGAFLDKPKTEKHNAHGAGNGLRYGLSSMQGWRVEMEDAHTAVVGIPHGLEDWSFFAVYDGHAGSRVANYCSTHLLEHITTNEDFRAAGKSGSALELSVENVKNGIRTGFLKIDEYMRNFSDLRNGMDRSGSTAVGVMISPKHIYFINCGDSRAVLYRNGQVCFSTQDHKPCNPREKERIQNAGGSVMIQRVNGSLAVSRALGDYDYKCVDGKGPTEQLVSPEPEVYEILRAEEDEFIILACDGIWDVMSNEELCEYVKSRLEVSDDLENVCNWVVDTCLHKGSRDNMSIVLVCFSNAPKVSDEAVKKDSELDKHLESRVEEIMEKSGEEGMPDLAHVMRILSAENIPNLPPGGGLAGKRNVIEAVYSRLNPHRESDGASDEAEESGSQGKLVEALRQMRINHRGNYRQLLEEMLTSYRLAKVEGEESPAEPAATATSSNSDAGNPVTMQESHTESESGLAELDSSNEDAGTKMSGEKI
B2: RAB3A (protein, UniProt P20336 1-220)
chain: MASATDSRYGQKESSDQNFDYMFKILIIGNSSVGKTSFLFRYADDSFTPAFVSTVGIDFKVKTIYRNDKRIKLQIWDTAGQERYRTITTAYYRGAMGFILMYDITNEESFNAVQDWSTQIKTYSWDNAQVLLVGNKCDMEDERVVSSERGRQLADHLGFEFFEASAKDNINVKQTFERLVDVICEKMSESLDTADPAVTGAKQGPQLSDQQVPPHQDCAC

target: T1, Flag-RAB3B (human); assay: affinity purification with mass spectrometry; IP of RAB3B from cell lysate on beads (M2 or HA-conjugated beads, 4 °C, 120 min; lysis buffer 150 mM NaCl, 0.5% NP-40, 1 mM EDTA, 50 mM Tris-Cl pH 7.4), beads analysed by MS; cell line and bait construct not stated

Row | binding | Molecule
1 | binds | DUSP12 (from UniProt Q9UNI6 1-340) (enzyme)
2 | binds | RAB6A (from UniProt P20340 1-208)
3 | binds | RAB6B (from UniProt Q9NRW1 1-208)
4 | binds | RAB7A (from UniProt P51149 1-207)
5 | binds | B1
6 | binds | B2
